From PubChem BioAssay AID248 (DTP/NCI, 2004) come the findings set out here.

The subject of the assay is L1210 leukemia ip in BDF1 mice, survival T/C. Nature of the assay: NCI In Vivo Anticancer Drug Screen. Data for tumor model L1210 Leukemia (intraperitoneal) in B6D2F1 (BDF1) mice. The settings on record: T/C endpoint: mean survival time, higher T/C = longer survival.
The mark [1] stands for this setting: dose: 200.0 mg/kg/injection, schedule: Q01DX Z (ip), vehicle: methylcellulose (MC).
[2] abbreviates: dose: 200.0 mg/kg/injection, schedule: Q01DX009 (ip), vehicle: saline.
Where [3] appears, read: dose: 100.0 mg/kg/injection, schedule: Q04DX003 (ip), vehicle: saline.
Setting [4] is: dose: 200.0 mg/kg/injection, schedule: Q04DX003 (ip), vehicle: saline.
Where [5] appears, read: dose: 400.0 mg/kg/injection, schedule: Q04DX003 (ip), vehicle: saline.
[6] abbreviates: dose: 400.0 mg/kg/injection, schedule: Q04DX003 (ip), vehicle: Klucel (hydroxypropylcellulose) (HPC).
The mark [7] stands for this setting: dose: 400.0 mg/kg/injection, schedule: Q01DX001 (ip), vehicle: carboxymethylcellulose (CMC).
Setting [8] is: dose: 200.0 mg/kg/injection, schedule: Q01DX009 (ip), vehicle: Klucel (hydroxypropylcellulose) (HPC).
[9] abbreviates: dose: 400.0 mg/kg/injection, schedule: Q01DX009 (ip), vehicle: Klucel (hydroxypropylcellulose) (HPC).
[10] abbreviates: dose: 400.0 mg/kg/injection, schedule: Q04DX003 (ip), vehicle: saline with Tween-80.
The mark [11] stands for this setting: dose: 400.0 mg/kg/injection, schedule: Q04DX002 (ip), vehicle: Klucel (hydroxypropylcellulose) (HPC).
[12] abbreviates: dose: 300.0 mg/kg/injection, schedule: Q01DX001 (ip), vehicle: saline.
[13] abbreviates: dose: 200.0 mg/kg/injection, schedule: Q04DX002 (ip), vehicle: saline.
The mark [14] stands for this setting: dose: 400.0 mg/kg/injection, schedule: Q04DX002 (ip), vehicle: saline.
[15] abbreviates: dose: 400.0 mg/kg/injection, schedule: Q01DX001 (ip), vehicle: saline.

The list is a part of this screen's results and no random one: it is rich in T/C values a quarter to a half above the control, in often repeated tests (any T/C) and in doses without a T/C. Further doses and runs are listed elsewhere. T/C gives the treated animals as a percentage of the vehicle group. Some entries give survivors of the animals treated and no T/C: the source files T/C as zero there, which appears to mark a toxic dose or a test without result, not a measured value. Some doses without a T/C left all or most animals alive at the check, yet need not have been tolerated: the source hardly ever lists a survival T/C far under the control, and the zero likely stands for such cases as well. Counts of survivors are from the toxicity check (mostly the fifth day) where no day follows; animals may have died later. Schedules are NCI's codes, read here as Q, the interval in days (D) or hours (H), X, the number of doses. Some schedules carry Z or #; the key to these is not given. Some structures stand for samples that the source files as different forms (salt, stereo form or complex); doses refer to the form tested. Where survival is the endpoint, this PubChem deposit counts one and a half times the control or more as active, and values a quarter to a half above the control carry no call in these data; other NCI protocols may use other cut-offs. Some doses were run more than once; the results are listed from low to high.

With `CN(c1ccccc1)c1cc(N)nc(N)n1`, the survivor count was 5 of 6 (dose: 12.0 mg/kg/injection, schedule: Q01DX Z (ip), vehicle: methylcellulose (MC)); 1 of 6 (dose: 25.0 mg/kg/injection, schedule: Q01DX Z (ip), vehicle: methylcellulose (MC)); 6 of 6 (dose: 50.0 mg/kg/injection, schedule: Q01DX Z (ip), vehicle: methylcellulose (MC)); 0 of 6 (dose: 100.0 mg/kg/injection, schedule: Q01DX Z (ip), vehicle: methylcellulose (MC)); 0 of 6 under setting [1].
Regarding `CCCCC#CCCl`, the survivor count by setting is: under setting [2], 2 of 6; (dose: 300.0 mg/kg/injection, schedule: Q01DX009 (ip), vehicle: saline) 0 of 6.
Turning to `Cc1n(C(C)C)c2c([n+]1C)C(=O)c1ccccc1C2=O`, the survivor count is 2 of 6 (dose: 3.12 mg/kg/injection, schedule: Q04DX003 (ip), vehicle: acetone); 2 of 6 (dose: 5.31 mg/kg/injection, schedule: Q01DX009 (ip), vehicle: acetone); 0 of 6 (dose: 6.25 mg/kg/injection, schedule: Q04DX003 (ip), vehicle: acetone); 0 of 6 (dose: 12.5 mg/kg/injection, schedule: Q04DX003 (ip), vehicle: saline); 0 of 6 (dose: 25.0 mg/kg/injection, schedule: Q04DX003 (ip), vehicle: saline); 0 of 6 (dose: 50.0 mg/kg/injection, schedule: Q04DX003 (ip), vehicle: saline). The survivor count runs as follows: under setting [3], 0 of 6; under setting [4], 0 of 6; under setting [5], 0 of 6.
For `CCCCc1c(N)nc(=S)[nH]c1C(=O)O`, the survivor count (dose: 100.0 mg/kg/injection, schedule: Q04DX003 (ip), vehicle: Klucel (hydroxypropylcellulose) (HPC)) is 6 of 6 and the survivor count under setting [6] was 6 of 6.
With `CN1CCC=C(C(=O)O)C1`, the survivor count under setting [7] is 2 of 4.
As for `N#CCN1CCCN(CC#N)C1`, the survivor count is, setting by setting: under setting [8], 1 of 6; under setting [9], 0 of 6; under setting [6], 0 of 6.
Take `COc1ccc(C(O)SP(=S)(OC)c2ccc(OC)cc2)cc1` (centres undefined): the survivor count under setting [10] is listed as 3 of 6.
Turning to `CC(C)(C)C1CCC(N=C(N)CSS(=O)(=O)O)CC1` (centres undefined), the survivor count by setting is: (dose: 50.0 mg/kg/injection, schedule: Q04DX002 (ip), vehicle: Klucel (hydroxypropylcellulose) (HPC)) 0 of 3; (dose: 100.0 mg/kg/injection, schedule: Q04DX002 (ip), vehicle: Klucel (hydroxypropylcellulose) (HPC)) 0 of 3; (dose: 200.0 mg/kg/injection, schedule: Q04DX002 (ip), vehicle: Klucel (hydroxypropylcellulose) (HPC)) 0 of 3; under setting [11], 0 of 3.
As to `C/C=C(\C)C1(CC)C(=O)NC(=O)N(C)C1=O` (centres undefined), the survivor count under setting [12] is 0 of 6.
In the case of `CCN(CC)CCC(C#N)(CC=C(C)C)c1cccc2ccccc12` (centres undefined), the survivor count is 2 of 6 (dose: 100.0 mg/kg/injection, schedule: Q01DX009 (ip), vehicle: Klucel (hydroxypropylcellulose) (HPC)); 0 of 6 under setting [8]; 0 of 6 under setting [9].
For the compound `O=C(O)CCNc1ccc(Cl)cc1[N+](=O)[O-]`, the survivor count under setting [11] was 0 of 3.
Regarding `CCOC(=O)C(CC)C1=CCCCC1` (centres undefined), the survivor count (dose: 400.0 mg/kg/injection, schedule: Q01DX009 (ip), vehicle: saline with Tween-80) is on record as 6 of 6.
Turning to `CN(C)CCNCC(Cc1ccccc1)c1ccccc1` (centres undefined), the survivor count under setting [13] is 1 of 3 and the survivor count under setting [14] is 0 of 3.
In the case of `Cc1ccc(Cl)cc1NC(=O)OCCOc1ccccc1`, the survivor count (dose: 200.0 mg/kg/injection, schedule: Q04DX003 (ip), vehicle: saline with Tween-80) is recorded as 6 of 6.
Turning to `NC(N)=N/N=C(/C=C/c1ccccc1)c1ccc(Cl)cc1`, the survivor count (dose: 480.0 mg/kg/injection, schedule: Q01DX Z (ip), vehicle: carboxymethylcellulose (CMC)) is 6 of 6.
Take `CCCCCCCCCCCCCCCC[N+]1(CC)CCCC1`: the survivor count by setting is: (dose: 100.0 mg/kg/injection, schedule: Q04DX002 (ip), vehicle: saline) 0 of 3; under setting [13], 0 of 3; under setting [14], 0 of 3.
In the case of `O=C(O)COc1ccc(Cl)cc1Cl` (tested in a mixture with another compound), the survivor count was 1 of 6 under setting [3]; 1 of 6 (dose: 200.0 mg/kg/injection, schedule: Q01DX001 (ip), vehicle: carboxymethylcellulose (CMC)); 0 of 6 under setting [7].
For the compound `C=CCN(C=O)CC=C`, the survivor count by setting is: under setting [2], 4 of 6; (dose: 400.0 mg/kg/injection, schedule: Q01DX009 (ip), vehicle: saline) 0 of 6.
As for `OCC12CCCCC1CC1(CC2)OCCO1` (centres undefined), under setting [10], the survivor count was 6 of 6.
In the case of `CN(C)CCC1CCCCN1` (centres undefined), the survivor count runs as follows: under setting [4], 3 of 6; under setting [5], 2 of 6.
For `O=C(Nc1ccc(CCO)cc1)Nc1cc(C(F)(F)F)ccc1Cl`, under setting [9], the survivor count is listed as 1 of 6.
`C=CCc1ccc(OC(=O)Nc2cccc(C)c2)c(OC)c1`: the survivor count reads like this: (dose: 300.0 mg/kg/injection, schedule: Q01DX009 (ip), vehicle: saline with Tween-80) 3 of 6; (dose: 400.0 mg/kg/injection, schedule: Q04DX002 (ip), vehicle: saline with Tween-80) 3 of 3.
On to `CCCCNc1ccc(C(=O)OCCNC2CCCCC2)cc1`, for which the survivor count under setting [12] is given as 0 of 6.
As for `O=C(OCC1OC(n2cnc3c(=S)nc[nH]c32)C(OC(=O)c2ccccc2)C1OC(=O)c1ccccc1)c1ccccc1` (centres undefined), the T/C reads like this: (dose: 50.0 mg/kg/injection, schedule: Q01DX009 (ip), vehicle: saline) 126 % of control; (dose: 59.0 mg/kg/injection, schedule: Q01DX Z (ip), vehicle: carboxymethylcellulose (CMC)) 127 % of control; (dose: 85.0 mg/kg/injection, schedule: Q01DX009 (ip), vehicle: saline) 143 % of control; (dose: 88.0 mg/kg/injection, schedule: Q01DX Z (ip), vehicle: carboxymethylcellulose (CMC)) 127 % of control; (dose: 100.0 mg/kg/injection, schedule: Q01DX Z (ip), vehicle: saline) 132 % of control; (dose: 134.0 mg/kg/injection, schedule: Q01DX Z (ip), vehicle: carboxymethylcellulose (CMC)) 125 and 145 % of control. In addition, the T/C (dose: 150.0 mg/kg/injection, schedule: Q01DX Z (ip), vehicle: saline) is 132 % of control; the T/C (dose: 175.0 mg/kg/injection, schedule: Q01DX001 (ip), vehicle: saline) is 145 % of control; the T/C (dose: 175.0 mg/kg/injection, schedule: Q01DX009 (ip), vehicle: saline) was 143 % of control; the T/C (dose: 200.0 mg/kg/injection, schedule: Q01DX Z (ip), vehicle: carboxymethylcellulose (CMC)) was 131 and 137 % of control; the T/C under setting [1] was 146 % of control; the T/C (dose: 265.0 mg/kg/injection, schedule: Q01DX001 (ip), vehicle: saline) is 128 % of control. The T/C was 136 % of control under setting [15] and 128 % of control (dose: 443.0 mg/kg/injection, schedule: Q01DX Z (ip), vehicle: carboxymethylcellulose (CMC)). Besides, the survivor count runs as follows: (dose: 333.0 mg/kg/injection, schedule: Q01DX Z (ip), vehicle: saline) 6 of 6; (dose: 675.0 mg/kg/injection, schedule: Q01DX Z (ip), vehicle: methylcellulose (MC)) 6 of 6.
Take `ClCCOc1ccccc1`: the survivor count under setting [15] is listed as 1 of 4.
